# Measured values from US4110626A, “Method for improving the quality of the fragrance of perfumes using aliphatic dibasic acid diesters” (Shiseido Co., Ltd., priority 1976, dated 1978).
# Experiment: Diluting effect: fragrance change evaluated by a panel of five expert perfumers
# Parameters: key: O: Almost no change occurred; Δ: Somewhat changed?; ×: Changed
Compound,FC (Fragrance change) (perfume: Coumarin),FC (Fragrance change) (perfume: Heliotropin),FC (Fragrance change) (perfume: Ionone),FC (Fragrance change) (perfume: Laurinal),FC (Fragrance change) (perfume: Limonene),FC (Fragrance change) (perfume: Linalool),FC (Fragrance change) (perfume: Linalyl Acetate),FC (Fragrance change) (perfume: Musk Ketone),FC (Fragrance change) (perfume: Resinoid Olibanum),FC (Fragrance change) (perfume: Ylang Ylang)
"CC(C)CCOC(=O)CCCCC(=O)OCCC(C)C (single isomer, unassigned) [DIAA, diisoamyl adipate]",O,O,O,O,O,O,O,O,O,–
"CC(C)COC(=O)CCCCC(=O)OCC(C)C [DIBA, diisobutyl adipate]",O,O,O,O,O,O,O,O,O,–
"CCOC(=O)c1ccccc1C(=O)OCC [Diethyl Phthalate, diethyl phthalate]",O,O,O,O,O,O,O,O,O,O
dipropylene glycol,O,O,O,O,O,O,O,O,O,–
OCc1ccccc1 [Benzyl Alcohol],Δ,×,Δ,×,Δ,Δ,Δ,×,Δ,–
"O=C(OCc1ccccc1)c1ccccc1 [Benzyl Benzoate, benzyl benzoate]",O,O,O,Δ,O,O,O,O,O,O
